# Data: the supplement of paper PMC10849652
# Chains of the proteins cited; added tags and fusions are not shown. Lines headed by an entry give the natural chain unless they say otherwise; changes in a name come on top.
# UniProt Q9P2D3: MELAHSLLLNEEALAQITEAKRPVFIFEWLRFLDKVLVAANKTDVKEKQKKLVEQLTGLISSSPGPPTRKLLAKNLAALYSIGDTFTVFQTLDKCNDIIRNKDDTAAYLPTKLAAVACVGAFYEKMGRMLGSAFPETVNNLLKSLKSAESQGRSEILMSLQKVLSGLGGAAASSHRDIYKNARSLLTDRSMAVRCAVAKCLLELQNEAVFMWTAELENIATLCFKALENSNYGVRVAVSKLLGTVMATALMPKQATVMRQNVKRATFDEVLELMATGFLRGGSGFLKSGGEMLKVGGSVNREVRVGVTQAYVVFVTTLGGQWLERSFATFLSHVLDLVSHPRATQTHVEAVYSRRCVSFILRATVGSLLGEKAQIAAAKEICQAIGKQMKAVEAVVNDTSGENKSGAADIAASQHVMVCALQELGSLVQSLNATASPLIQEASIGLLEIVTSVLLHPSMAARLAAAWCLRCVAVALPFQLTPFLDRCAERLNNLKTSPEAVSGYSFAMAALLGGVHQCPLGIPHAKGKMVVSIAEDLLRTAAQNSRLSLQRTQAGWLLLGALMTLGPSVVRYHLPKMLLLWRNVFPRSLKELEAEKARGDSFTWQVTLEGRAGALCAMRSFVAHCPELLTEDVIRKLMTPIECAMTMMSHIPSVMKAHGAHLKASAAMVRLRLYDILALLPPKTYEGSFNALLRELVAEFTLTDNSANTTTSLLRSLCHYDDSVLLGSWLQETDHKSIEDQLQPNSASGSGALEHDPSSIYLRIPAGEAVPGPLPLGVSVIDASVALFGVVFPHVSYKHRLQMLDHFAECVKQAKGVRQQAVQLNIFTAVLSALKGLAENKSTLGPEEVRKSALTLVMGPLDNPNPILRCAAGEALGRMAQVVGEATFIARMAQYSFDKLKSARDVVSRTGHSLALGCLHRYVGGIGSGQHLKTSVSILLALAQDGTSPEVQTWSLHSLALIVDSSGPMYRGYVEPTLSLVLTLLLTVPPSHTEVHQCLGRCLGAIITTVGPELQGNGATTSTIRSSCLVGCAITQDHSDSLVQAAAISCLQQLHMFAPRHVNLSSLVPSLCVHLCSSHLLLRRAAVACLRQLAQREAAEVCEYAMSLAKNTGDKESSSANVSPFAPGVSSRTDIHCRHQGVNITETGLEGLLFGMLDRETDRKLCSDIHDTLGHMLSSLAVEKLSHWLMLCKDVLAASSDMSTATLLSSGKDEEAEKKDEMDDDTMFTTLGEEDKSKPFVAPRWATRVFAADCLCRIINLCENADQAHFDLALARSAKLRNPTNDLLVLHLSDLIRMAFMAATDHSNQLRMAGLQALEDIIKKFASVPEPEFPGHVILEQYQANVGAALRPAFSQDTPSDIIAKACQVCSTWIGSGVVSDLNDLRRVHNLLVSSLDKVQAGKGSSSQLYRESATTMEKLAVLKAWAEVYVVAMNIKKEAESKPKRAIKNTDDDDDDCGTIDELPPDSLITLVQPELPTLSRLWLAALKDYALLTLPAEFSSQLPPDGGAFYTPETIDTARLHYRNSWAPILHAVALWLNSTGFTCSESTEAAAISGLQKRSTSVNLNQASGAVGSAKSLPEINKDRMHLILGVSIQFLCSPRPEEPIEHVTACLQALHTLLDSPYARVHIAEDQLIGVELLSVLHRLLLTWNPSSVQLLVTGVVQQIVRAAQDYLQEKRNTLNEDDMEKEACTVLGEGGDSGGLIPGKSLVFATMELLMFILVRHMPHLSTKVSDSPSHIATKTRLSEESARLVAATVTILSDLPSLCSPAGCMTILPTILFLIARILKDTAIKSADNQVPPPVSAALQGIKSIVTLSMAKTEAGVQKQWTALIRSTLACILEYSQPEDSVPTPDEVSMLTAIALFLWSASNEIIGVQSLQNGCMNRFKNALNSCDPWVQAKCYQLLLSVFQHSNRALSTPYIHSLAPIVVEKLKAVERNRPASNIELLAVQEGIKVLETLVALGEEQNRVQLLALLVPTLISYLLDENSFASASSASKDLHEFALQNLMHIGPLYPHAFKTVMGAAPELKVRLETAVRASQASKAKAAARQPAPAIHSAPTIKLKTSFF
# UniProt O75791: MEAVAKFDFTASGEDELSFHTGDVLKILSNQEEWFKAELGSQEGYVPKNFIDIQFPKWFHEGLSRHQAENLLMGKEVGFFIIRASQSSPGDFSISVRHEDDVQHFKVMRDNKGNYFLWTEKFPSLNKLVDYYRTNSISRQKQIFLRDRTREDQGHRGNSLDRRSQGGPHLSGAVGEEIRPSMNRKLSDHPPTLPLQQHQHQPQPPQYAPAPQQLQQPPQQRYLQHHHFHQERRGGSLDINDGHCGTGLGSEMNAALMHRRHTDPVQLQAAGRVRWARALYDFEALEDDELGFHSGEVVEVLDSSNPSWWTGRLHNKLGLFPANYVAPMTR
# UniProt P02724: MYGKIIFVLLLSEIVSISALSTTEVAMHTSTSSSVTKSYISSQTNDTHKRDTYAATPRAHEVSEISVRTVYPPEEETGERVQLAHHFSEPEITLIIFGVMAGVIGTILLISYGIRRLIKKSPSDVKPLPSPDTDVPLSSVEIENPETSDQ
# UniProt Q9UQL6: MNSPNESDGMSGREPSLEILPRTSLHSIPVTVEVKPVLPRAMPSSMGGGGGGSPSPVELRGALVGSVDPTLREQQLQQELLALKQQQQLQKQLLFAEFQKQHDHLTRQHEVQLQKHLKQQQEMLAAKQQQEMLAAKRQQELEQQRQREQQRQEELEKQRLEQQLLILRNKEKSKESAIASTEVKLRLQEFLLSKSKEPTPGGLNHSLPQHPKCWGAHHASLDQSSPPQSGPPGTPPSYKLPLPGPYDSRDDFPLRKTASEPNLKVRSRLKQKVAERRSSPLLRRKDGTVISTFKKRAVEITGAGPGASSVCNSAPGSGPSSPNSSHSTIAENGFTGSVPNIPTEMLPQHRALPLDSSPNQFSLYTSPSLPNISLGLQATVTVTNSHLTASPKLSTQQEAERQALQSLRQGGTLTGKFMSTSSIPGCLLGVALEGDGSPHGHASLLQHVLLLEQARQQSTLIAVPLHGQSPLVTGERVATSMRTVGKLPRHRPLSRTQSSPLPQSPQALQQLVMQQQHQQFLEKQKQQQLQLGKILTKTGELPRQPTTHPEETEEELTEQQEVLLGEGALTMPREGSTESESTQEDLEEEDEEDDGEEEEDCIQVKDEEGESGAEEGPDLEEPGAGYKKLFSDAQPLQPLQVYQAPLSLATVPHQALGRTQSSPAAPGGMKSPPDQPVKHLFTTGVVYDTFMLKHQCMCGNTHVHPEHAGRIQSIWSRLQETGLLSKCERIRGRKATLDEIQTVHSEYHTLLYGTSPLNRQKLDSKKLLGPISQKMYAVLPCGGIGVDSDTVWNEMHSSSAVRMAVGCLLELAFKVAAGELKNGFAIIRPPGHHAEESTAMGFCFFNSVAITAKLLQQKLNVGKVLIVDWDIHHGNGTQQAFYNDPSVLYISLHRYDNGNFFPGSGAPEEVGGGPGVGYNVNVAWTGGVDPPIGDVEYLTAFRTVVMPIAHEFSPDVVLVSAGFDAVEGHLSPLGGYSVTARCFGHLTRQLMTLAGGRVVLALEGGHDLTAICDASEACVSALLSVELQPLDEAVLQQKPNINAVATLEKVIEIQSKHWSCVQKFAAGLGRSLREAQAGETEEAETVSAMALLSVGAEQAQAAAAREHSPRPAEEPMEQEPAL
# UniProt P69905, whole entry, looked up: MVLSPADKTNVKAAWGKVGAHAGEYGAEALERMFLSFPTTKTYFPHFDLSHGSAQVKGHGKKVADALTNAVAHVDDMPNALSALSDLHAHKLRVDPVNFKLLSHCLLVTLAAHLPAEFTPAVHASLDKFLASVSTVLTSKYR
# UniProt P21266: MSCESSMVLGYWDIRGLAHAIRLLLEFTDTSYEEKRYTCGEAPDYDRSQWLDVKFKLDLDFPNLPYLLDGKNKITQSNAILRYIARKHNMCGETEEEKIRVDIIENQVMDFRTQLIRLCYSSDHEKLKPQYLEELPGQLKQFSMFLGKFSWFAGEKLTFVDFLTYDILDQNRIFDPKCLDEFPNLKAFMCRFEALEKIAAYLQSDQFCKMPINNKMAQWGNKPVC
# UniProt P51610: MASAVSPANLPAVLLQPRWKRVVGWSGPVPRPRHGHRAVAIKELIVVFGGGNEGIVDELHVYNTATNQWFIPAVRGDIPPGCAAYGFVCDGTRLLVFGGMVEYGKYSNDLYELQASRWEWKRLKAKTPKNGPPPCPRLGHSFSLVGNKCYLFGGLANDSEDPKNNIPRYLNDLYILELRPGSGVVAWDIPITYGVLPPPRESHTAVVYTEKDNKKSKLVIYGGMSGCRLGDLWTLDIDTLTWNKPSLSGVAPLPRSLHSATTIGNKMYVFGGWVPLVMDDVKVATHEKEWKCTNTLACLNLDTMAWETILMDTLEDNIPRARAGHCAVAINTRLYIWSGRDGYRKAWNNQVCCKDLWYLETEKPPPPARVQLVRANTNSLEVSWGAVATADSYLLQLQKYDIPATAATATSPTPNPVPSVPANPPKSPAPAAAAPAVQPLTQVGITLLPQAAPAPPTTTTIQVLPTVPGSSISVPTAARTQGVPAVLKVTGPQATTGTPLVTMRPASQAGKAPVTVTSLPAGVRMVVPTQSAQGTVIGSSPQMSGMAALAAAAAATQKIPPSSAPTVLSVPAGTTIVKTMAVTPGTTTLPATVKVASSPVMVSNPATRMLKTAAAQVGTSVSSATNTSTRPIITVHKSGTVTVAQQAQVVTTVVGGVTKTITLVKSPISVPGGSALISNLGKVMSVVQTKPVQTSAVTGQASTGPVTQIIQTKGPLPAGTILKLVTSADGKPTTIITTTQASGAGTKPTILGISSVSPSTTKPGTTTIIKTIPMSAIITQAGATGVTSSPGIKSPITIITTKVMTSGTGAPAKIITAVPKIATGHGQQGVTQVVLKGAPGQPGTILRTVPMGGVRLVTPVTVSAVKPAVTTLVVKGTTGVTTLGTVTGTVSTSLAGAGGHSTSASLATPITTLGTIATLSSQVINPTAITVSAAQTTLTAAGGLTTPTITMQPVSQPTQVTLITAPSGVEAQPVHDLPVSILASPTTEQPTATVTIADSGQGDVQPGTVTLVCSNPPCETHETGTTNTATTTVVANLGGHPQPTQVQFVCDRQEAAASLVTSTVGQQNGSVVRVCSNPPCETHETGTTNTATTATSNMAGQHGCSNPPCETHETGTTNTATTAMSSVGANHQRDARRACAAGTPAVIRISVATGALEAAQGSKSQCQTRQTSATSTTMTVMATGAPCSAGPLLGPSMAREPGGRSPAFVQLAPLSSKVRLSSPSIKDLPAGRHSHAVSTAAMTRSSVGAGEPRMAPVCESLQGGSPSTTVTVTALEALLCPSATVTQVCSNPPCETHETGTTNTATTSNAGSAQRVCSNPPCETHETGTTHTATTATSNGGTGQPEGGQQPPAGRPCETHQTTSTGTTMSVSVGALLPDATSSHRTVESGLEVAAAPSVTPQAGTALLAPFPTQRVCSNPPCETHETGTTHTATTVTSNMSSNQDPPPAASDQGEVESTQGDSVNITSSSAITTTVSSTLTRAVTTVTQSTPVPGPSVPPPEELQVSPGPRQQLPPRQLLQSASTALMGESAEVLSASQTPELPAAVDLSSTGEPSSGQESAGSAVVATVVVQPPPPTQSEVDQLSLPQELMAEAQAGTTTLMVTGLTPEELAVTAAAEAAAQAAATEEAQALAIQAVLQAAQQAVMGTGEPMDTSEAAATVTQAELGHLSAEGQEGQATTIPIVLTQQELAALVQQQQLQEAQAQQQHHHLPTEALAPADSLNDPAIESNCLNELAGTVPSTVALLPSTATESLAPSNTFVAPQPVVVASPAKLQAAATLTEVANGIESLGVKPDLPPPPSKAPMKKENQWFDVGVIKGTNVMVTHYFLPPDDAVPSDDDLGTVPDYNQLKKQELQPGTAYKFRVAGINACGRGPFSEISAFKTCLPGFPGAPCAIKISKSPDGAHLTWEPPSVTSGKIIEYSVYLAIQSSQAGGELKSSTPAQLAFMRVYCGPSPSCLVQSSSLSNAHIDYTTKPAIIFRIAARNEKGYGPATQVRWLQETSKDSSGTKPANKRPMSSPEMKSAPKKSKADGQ
# UniProt Q8TD30: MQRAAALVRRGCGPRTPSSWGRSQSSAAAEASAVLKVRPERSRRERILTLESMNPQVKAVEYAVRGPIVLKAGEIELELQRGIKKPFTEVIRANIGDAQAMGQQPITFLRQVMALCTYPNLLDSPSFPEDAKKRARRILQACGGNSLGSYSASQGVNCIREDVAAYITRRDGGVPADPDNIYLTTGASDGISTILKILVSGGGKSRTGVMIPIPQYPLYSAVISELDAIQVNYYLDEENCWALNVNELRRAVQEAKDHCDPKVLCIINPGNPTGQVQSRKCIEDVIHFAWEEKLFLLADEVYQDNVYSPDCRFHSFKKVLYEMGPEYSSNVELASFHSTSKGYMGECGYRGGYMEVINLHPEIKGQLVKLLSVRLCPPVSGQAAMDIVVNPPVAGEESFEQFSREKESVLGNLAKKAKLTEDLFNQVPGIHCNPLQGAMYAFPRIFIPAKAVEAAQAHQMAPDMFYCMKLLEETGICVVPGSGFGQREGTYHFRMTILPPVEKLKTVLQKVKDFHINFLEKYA
# The other results are listed elsewhere or left out.
# Compound: NCC(=O)Nc1ccc(-n2nc(C(F)(F)F)cc2-c2ccc3c(ccc4ccccc43)c2)cc1
# Test: log2 fold change, soluble protein after heating vs DMSO (PISA); higher = thermal stabilisation; K562 lysate, 10 uM; active = over 0.2 and 3.5 SD of the protein, either way, in both replicates (recomputed)
# Procedure, shortened: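 To prepare the extract, K562 pellets were dounce-homogenised in PBS pH 7.4 with 1 mM MgCl2, giving crude material at 1 mg/mL protein. This was treated with 10 μM compound for 30 min, then heated in aliquots for 3 min over 48°C-58°C before pooling and addition of NP-40 to 0.5% at 4°C. Centrifugation at 21,000xg for 90 min left soluble protein in the supernatant, which TMTpro 16plex LC-MS/MS quantified with equalised channel sums. Results are log-two fold changes in thermal stability compared with solvent controls, from duplicates.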
row,Target,log2 fold change
1,HEATR5B (UniProt Q9P2D3),inactive: 0
2,HAUS5 (UniProt O94927),inactive: 0.031
3,HEATR3 (UniProt Q7Z4Q2),inactive: -0.03
4,GSK3B isoform 2 (UniProt P49841),inactive: 0.02
5,GTPBP1 (UniProt O00178),inactive: 0.003
6,GRAP2 (UniProt O75791),inactive: -0.016
7,GTF2H2 (UniProt Q13888),inactive: 0.011
8,GSS (UniProt P48637),inactive: -0.02
9,GTF2H1 (UniProt P32780),inactive: -0.019
10,HBS1L isoform 2 (UniProt Q9Y450),inactive: 0.028
11,GSPT1 isoform 2 (UniProt P15170),inactive: 0.035
12,GRK5 (UniProt P34947),inactive: 0.032
13,GRB2 (UniProt P62993),inactive: -0.003
14,H1-2 (UniProt P16403),inactive: 0.039
15,H3-3A (UniProt P84243),inactive: 0.021
16,GYPA (UniProt P02724),inactive: -0.028
17,HAUS8 (UniProt Q9BT25),inactive: 0.083
18,HBE1 (UniProt P02100),inactive: -0.057
19,"HBZ, A0A494C057",inactive: -0.126
20,HDAC5 isoform 3 (UniProt Q9UQL6),inactive: -0.017

# 11 entries from above, with tabs.
row	Target	log2 fold change
3	HEATR3 (UniProt Q7Z4Q2)	inactive: -0.03
4	GSK3B isoform 2 (UniProt P49841)	inactive: 0.02
5	GTPBP1 (UniProt O00178)	inactive: 0.003
6	GRAP2 (UniProt O75791)	inactive: -0.016
7	GTF2H2 (UniProt Q13888)	inactive: 0.011
8	GSS (UniProt P48637)	inactive: -0.02
9	GTF2H1 (UniProt P32780)	inactive: -0.019
10	HBS1L isoform 2 (UniProt Q9Y450)	inactive: 0.028
11	GSPT1 isoform 2 (UniProt P15170)	inactive: 0.035
12	GRK5 (UniProt P34947)	inactive: 0.032
13	GRB2 (UniProt P62993)	inactive: -0.003

# Further results:

row,Target,log2 fold change
1,HAUS4 (UniProt Q9H6D7),inactive: -0.022
2,H1FX (UniProt Q92522),inactive: -0.013
3,HADHB (UniProt P55084),inactive: 0.047
4,GSKIP (UniProt Q9P0R6),inactive: -0.17
5,GTF2E1 (UniProt P29083),inactive: -0.02
6,HBA1 (UniProt P69905),inactive: -0.084
7,GTF3C3 (UniProt Q9Y5Q9),inactive: -0.007
8,GSR isoform 5 (UniProt P00390),inactive: 0.011
9,HDAC6 (UniProt Q9UBN7),inactive: -0.039
10,GRHPR (UniProt Q9UBQ7),inactive: 0.02
11,HAUS3 (UniProt Q68CZ6),inactive: 0.007
12,GSTM3 (UniProt P21266),inactive: -0.011
13,GTPBP4 (UniProt Q9BZE4),inactive: -0.008
14,HDAC3 (UniProt O15379),inactive: -0.016
15,HCFC1 (UniProt P51610),inactive: -0.196
16,GPT2 (UniProt Q8TD30),inactive: -0.127
17,GTF2F2 (UniProt P13984),inactive: -0.003
18,GTSF1 (UniProt Q8WW33),inactive: -0.017
19,GTF2H4 (UniProt Q92759),inactive: 0.01
